{
  "sequences": {"note": "Protein sequences, listed by entry. Tags and fused reporters are not part of them.", "UniProt O75159": "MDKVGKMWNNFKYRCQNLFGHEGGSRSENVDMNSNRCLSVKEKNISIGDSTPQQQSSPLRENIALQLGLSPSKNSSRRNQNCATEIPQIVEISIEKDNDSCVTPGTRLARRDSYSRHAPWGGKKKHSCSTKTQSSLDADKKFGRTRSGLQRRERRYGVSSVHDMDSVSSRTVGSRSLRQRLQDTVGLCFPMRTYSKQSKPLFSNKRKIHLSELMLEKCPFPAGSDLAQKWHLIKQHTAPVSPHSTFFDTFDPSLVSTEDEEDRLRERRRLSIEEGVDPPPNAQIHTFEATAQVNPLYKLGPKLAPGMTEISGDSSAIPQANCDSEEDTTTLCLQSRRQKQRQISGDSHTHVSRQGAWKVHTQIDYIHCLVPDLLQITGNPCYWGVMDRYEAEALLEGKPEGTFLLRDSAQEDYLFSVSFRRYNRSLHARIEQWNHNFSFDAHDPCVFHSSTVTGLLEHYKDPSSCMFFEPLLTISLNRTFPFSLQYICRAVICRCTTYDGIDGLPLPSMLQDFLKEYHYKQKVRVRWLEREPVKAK", "UniProt P38159": "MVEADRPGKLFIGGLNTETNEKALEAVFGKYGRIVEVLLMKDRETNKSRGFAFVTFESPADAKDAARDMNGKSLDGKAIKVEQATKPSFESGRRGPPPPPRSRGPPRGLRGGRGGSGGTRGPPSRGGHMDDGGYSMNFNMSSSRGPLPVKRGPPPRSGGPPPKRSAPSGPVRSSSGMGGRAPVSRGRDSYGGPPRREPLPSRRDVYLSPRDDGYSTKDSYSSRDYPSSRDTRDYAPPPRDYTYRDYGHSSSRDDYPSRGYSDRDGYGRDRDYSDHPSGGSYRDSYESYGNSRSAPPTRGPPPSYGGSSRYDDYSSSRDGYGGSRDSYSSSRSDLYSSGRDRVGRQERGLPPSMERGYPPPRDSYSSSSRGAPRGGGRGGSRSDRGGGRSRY"},
  "source": "paper PMC10907597",
  "molecular_target": "SOCS5-HA (suppressor of cytokine signaling 5, HA-tagged) (UniProt O75159)",
  "assay": "affinity purification with mass spectrometry; SOCS5-HA in Huh7 cells precipitated with an anti-HA antibody; co-precipitated proteins identified by mass spectrometry",
  "note": "No constants are given. Whether binding was seen depends on the method and setting. In cells and extracts the contact can be indirect. These calls come from enrichment with a bait or labelling near it, and not all partners need be listed.",
  "data": [
    {"substance": "RBMX (RNA binding motif protein X-linked), endogenous (from UniProt P38159 1-391)", "values": [
      {"measurement": "binding", "result": "binds"}
    ]}
  ]
}
